Assay results published in patent US8993717B2 (Imperial Innovations Limited, priority 2009, dated 2015).

Test: general procedure: Fmoc solid-phase peptide synthesis
Settings: whole synthesis

Z-D-Tyr-D-Glu-D-Arg-D-Phe-NH2
isolated yield: around 60%
final HPLC purity (LC-MS and NMR): more than 95% pure (HPLC)
